In EP4636087A1, “ANTI-GPA33 ANTIBODY AND UTILIZATION THEREOF” (Kagoshima University, priority 2022, dated 2024):
Results are given in words; binding and its absence hold for the method and conditions named. Some binding calls cover weakened binding; strength is not graded here.

By UniProt entry, the sequences of proteins in these tests, tags left out. Residues count along the entry.
UniProt Q99795, residues 22-235: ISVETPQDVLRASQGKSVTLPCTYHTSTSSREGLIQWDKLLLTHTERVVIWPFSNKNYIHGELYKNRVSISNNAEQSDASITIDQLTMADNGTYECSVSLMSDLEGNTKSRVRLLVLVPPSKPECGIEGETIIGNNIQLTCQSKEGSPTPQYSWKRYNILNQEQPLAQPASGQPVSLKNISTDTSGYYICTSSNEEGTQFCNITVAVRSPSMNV
UniProt Q9JKA5, residues 22-235: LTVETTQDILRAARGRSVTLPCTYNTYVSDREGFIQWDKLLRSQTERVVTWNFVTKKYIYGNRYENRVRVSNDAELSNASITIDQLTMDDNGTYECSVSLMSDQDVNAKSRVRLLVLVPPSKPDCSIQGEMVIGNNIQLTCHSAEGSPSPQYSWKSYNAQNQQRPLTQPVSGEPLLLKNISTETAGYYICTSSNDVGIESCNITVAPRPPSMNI

Tests used:
[1] = target: human GPA33 recombinant protein (C-terminal His tag fusion protein, abcam) (human) (UniProt Q99795); test: phage ELISA (legend of Fig. 4)
[2] = target: mouse GPA33 recombinant protein (C-terminal His tag fusion protein, abcam) (mouse) (UniProt Q9JKA5); test: phage ELISA (legend of Fig. 4)
[3] = target: human GPA33 recombinant protein (C-terminal His tag fusion protein, abcam) (human) (UniProt Q99795); test: phage ELISA on recombinant GPA33-His
[4] = target: mouse GPA33 recombinant protein (C-terminal His tag fusion protein, abcam) (mouse) (UniProt Q9JKA5); test: phage ELISA on recombinant GPA33-His

Measured: binding

B1: GPA33-2RC17 cloned scFv phage (scFv)
scFv: QMQLVQSGGGLVKPGGSLRLSCAASGFTFSSYNMNWVRQAPGKGLEWVSSISSSGDFMYYADSVKGRFTISRDNAKNSLYLQMSSLRAEDTAVYYCAREGPGTPFDYWGQGTLVTVSSGGGGSGGGGSGSTGSAIQLTQSPSSLSASVGDRVTITCRASQSISSFLNWYQHKPGKAPKLLIYVASSLQSGVPSRFSGSGSGTDFTLTISSLQPEDFATYYCQQSHNTPYTFGQGTKLEIK
notes: also called G17
binds: all assays above

B2: GPA33-2RC28 cloned scFv phage (scFv)
scFv: EVQLVESGGGLVKPGGSLRLSCAASGFTFSSYSMNWVRQAPGKGLEWVSSISRDSTYIYYADSVKGRFTISRDNAKNSLYLQMNSLRAEDTAVYYCAREGVAGAFDIWGQGTMVTVSSGGGGSGGGGSGSTGSAIQLTQSPSSLSASVGDRVTITCRASQSISSYLNWYQQKPGKAPKLLIYIASSLQSGVPSRFSGSGSGTDFTLTISSLQPEDFATYYCQQSYNTWTFGQGTKVEIK
binds: all assays above
